# Earlier results in patent publication US20090258067A1 (priority 2005, published 2009).
# For at least one compound, name, drawing or mass did not settle the structure.
# Conditions: venlafaxine : O-desmethylvenlafaxine
smiles,measurement,value
CN(C)CC(c1ccc(O)cc1)C1(O)CCCCC1 (stereo not shown) [O-desmethylvenlafaxine],relative potencies based on ED50,1:1
